The conditions of the series: Propylenglykol (between 1.00 and 10.00%), 60°C, one week, in the dark; 10080 min.

The text below walks through data of patent EP1972333A1, “Stabilised aqueous solutions of ergolin compounds” (Axxonis Pharma AG, priority 2007, dated 2008).

Structures are written as SMILES.

In the case of `CCN(CC)C(=O)N[C@H]1C=C2c3cccc4[nH]cc(c34)C[C@H]2N(C)C1` [Lisuridhydrogenmaleat], the “verbliebener Wirkstoffgehalt” value was determined as 92.5%.
